Assay [1] concerns the target PI3K regulatory subunit p85α (human (endogenous in H358)) (UniProt P27986). Briefly: co-IP; H358 cells transfected with full length or truncated His-PPARβ/δ, lysed in RIPA buffer; immunoprecipitation with anti-p85α serum and A/G sepharose beads; His-PPARβ/δ detected with anti-His antibody.
For assay [2], the target named is full length His-PPARβ/δ (PPARβ/δ 1–441) (UniProt Q03181). The experiment in a line: pull-down; H358 cells transfected with His-PPARβ/δ, incubated with and without GW501516 for 18 h, lysed in RIPA buffer; His-PPARβ/δ pulled down with His-select nickel affinity gel; immunoblot for PPARβ/δ and p85α. A general note: In western blotting, separated proteins are transferred to a membrane and probed.

Sequences of proteins named here, by UniProt entry; tags and fusion partners are left off.
UniProt P27986: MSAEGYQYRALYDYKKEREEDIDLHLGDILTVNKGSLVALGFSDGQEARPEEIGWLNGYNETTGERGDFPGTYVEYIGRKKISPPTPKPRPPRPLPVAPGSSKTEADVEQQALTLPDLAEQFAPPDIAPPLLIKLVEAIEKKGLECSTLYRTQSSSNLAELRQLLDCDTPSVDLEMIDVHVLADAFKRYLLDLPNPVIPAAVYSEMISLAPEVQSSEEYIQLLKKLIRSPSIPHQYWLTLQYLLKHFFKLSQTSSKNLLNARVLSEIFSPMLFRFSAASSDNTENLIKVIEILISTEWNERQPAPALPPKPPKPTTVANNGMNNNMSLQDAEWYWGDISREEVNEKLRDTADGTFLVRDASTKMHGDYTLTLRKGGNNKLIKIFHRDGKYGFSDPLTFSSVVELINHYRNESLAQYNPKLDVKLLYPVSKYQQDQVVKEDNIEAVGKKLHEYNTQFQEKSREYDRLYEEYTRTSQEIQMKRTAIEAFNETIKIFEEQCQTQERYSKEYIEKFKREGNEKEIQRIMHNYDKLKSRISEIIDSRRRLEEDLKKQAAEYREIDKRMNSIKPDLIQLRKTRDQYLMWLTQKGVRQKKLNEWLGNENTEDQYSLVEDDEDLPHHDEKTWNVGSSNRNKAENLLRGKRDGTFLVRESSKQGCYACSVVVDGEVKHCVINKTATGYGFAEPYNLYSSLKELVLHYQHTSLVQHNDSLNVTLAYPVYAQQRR

Results are given in words; binding and its absence hold for the method and conditions named. In cells and extracts the contact can be indirect. Some binding calls cover weakened binding; strength is not graded here. For some of these results: Tags and fused reporters may be left off the sequences shown.

In the case of “His-tagged truncated PPARβ/δ retaining the N-terminal part (PPARβ/δ 1–168) (from UniProt Q03181 1-168) (domain or fragment)”, the binding entry in assay [1] is listed as “binds”.

Take “PI3K regulatory subunit p85α (from UniProt P27986 1-724)”: the binding result in assay [2] was “binds”.

Consider “full length His-PPARβ/δ (PPARβ/δ 1–441) (from UniProt Q03181 1-441)”, for which, in assay [1], the binding result is reported as “binds”.

B1: His-tagged truncated PPARβ/δ retaining the C-terminal part (PPARβ/δ 168–441) (domain or fragment, UniProt Q03181 168-441)
chain: YNPQVADLKAFSKHIYNAYLKNFNMTKKKARSILTGKASHTAPFVIHDIETLWQAEKGLVWKQLVNGLPPYKEISVHVFYRCQCTTVETVRELTEFAKSIPSFSSLFLNDQVTLLKYGVHEAIFAMLASIVNKDGLLVANGSGFVTREFLRSLRKPFSDIIEPKFEFAVKFNALELDDSDLALFIAAIILCGDRPGLMNVPRVEAIQDTILRALEFHLQANHPDAQYLFPKLLQKMADLRQLVTEHAQMMQRIKKTETETSLHPLLQEIYKDMY
Regarding B1, in assay [1], the binding entry is “binds”.

Values taken from publication PMC3457940.
